Literature values, collected in patent US9493429B2, “Substituted benzoxazoles and methods of use thereof” (GENENTECH, INC., priority 2013, dated 2016).

Details: administered topically (Lidoderm patch)

**Q.** With `CCN(CC)CC(=O)Nc1c(C)cccc1C` [lidocaine] as the compound, how does the plasma concentrations read?
**A.** about 1 μM
